Results on one substance are retold here after PMC7398064.

Protein sequences, listed by entry. Tags and fused reporters are not part of them.
UniProt O75340: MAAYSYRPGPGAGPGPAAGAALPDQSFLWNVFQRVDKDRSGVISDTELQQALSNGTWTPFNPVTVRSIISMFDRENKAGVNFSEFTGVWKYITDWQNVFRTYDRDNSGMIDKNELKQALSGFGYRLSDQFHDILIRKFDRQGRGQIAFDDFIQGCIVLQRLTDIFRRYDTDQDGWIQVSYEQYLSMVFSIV

These are yes or no findings as the source states them, for the method shown. Binding seen in cells or lysates may run through a third protein. A yes stands for co-enrichment or nearness to the bait. Other partners may have been found.

This experiment addresses Programmed cell death protein 6 (PDCD6) (human (endogenous in HCT116)) (UniProt O75340). The experiment can be described thus: affinity purification with mass spectrometry; HCT116 lysate (50 mM Tris-HCl pH 7.4, 100 mM NaCl, 0.5 mM Ca2+, 0.5% NP-40) purified with anti-PDCD6 antibody; SDS-PAGE bands excised, Q Exactive; spectra searched against raf1.fasta from UniProt.

Regarding “c-Raf (Raf-1) (from UniProt P04049 1-648)”, the binding entry was “binds”.
